Test results reported in article PMC13323771.
No constants are given. Whether binding was seen depends on the method and setting. Binding seen in cells or lysates may run through a third protein. Some binding calls cover weakened binding; strength is not graded here. Where a sequence is shown, tags or fusion partners need not be part of it.

Molecular target: T1, YFP:Kin-12F (AtRPS5a»Dex»YFP:Kin-12F) (Arabidopsis thaliana) (UniProt F4JDI6)
T1 sequence: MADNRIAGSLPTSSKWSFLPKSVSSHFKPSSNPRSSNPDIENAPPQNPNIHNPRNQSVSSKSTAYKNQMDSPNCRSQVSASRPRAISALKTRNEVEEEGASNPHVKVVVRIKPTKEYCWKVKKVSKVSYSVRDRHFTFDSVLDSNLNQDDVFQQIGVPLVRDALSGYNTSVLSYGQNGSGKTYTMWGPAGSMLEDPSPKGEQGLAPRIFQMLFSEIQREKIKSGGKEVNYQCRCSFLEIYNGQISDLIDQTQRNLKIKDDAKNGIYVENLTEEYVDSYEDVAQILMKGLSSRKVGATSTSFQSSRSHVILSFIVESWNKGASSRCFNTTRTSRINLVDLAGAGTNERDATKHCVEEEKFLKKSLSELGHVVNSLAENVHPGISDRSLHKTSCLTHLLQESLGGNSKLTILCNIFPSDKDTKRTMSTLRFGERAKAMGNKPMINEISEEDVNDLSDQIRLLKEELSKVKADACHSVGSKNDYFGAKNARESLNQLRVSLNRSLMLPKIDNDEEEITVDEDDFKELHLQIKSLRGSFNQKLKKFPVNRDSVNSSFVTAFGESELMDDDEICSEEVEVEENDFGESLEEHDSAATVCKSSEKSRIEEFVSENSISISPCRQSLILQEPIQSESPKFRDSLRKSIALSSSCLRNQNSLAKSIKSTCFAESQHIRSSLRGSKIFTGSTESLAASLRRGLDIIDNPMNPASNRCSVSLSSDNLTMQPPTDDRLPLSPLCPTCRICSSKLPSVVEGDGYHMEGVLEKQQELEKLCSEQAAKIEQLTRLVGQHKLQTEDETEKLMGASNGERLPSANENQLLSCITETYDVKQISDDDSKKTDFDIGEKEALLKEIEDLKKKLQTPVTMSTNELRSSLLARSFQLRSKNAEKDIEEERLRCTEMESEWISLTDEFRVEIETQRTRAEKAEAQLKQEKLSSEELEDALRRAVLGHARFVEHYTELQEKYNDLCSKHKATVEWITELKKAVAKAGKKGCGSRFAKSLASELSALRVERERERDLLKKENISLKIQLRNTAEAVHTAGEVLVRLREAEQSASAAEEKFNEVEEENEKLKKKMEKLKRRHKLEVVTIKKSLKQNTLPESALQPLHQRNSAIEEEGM
Assay: co-IP; extract of Arabidopsis seedlings (20 µM Dex for 16 h) in buffer with 2% CHAPS, cross-linked with 1 mM DTSSP, µMACS anti-GFP magnetic beads, blots with anti-GFP and anti-RAB-A2a

- binding: binds
B1: mCherry:RAB-A2a (p35S::mCherry:RAB-A2a) (protein, UniProt O04486 1-217)
chain: MARRPDEEYDYLFKVVLIGDSGVGKSNLLSRFTRNEFCLESKSTIGVEFATRTLQVEGRTVKAQIWDTAGQERYRAITSAYYRGALGALLVYDVTKPTTFENVSRWLKELRDHADSNIVIMLIGNKTDLKHLRAVATEDAQSYAEKEGLSFIETSALEALNVEKAFQTILSEVYRIISKKSISSDQTTANANIKEGQTIDVAATSESNAKKPCCSSS
